Consider one molecule from article PMC7048073.

Assay in all cases: two-hybrid; Matchmaker Two-Hybrid System (Clontech); RGB1 as prey (AD, pGADT7), PXLGs as bait (BD, pGBKT7); with a self-activation test
Experiment [1] has as its target PXLG1 (putative extra-large G protein 1) (rice).
The target of experiment [2] is PXLG2 (putative extra-large G protein 2) (rice) (UniProt Q2R941).
Experiment [3] concerns the target PXLG3 (putative extra-large G protein 3) (rice).
The target in experiment [4] is PXLG4 (putative extra-large G protein 4) (rice).

Results are given in words; binding and its absence hold for the method and conditions named. For some of these results: A result given as binding can be weak or reduced; the word gives no strength.

B1: RGB1 (rice heterotrimeric G protein Gβ subunit) (protein, UniProt Q40687 1-380)
chain: MASVAELKEKHAAATASVNSLRERLRQRRQMLLDTDVERYSRTQGRTPVSFNPTDLVCCRTLQGHSGKVYSLDWTPEKNWIVSASQDGRLIVWNALTSQKTHAIKLHCPWVMTCAFAPNGQSVACGGLDSACSIFNLNSQADRDGNIPVSRILTGHKGYVSSCQYVPDQETRLITSSGDQTCVLWDVTTGQRISIFGGEFPSGHTADVLSLSINSSNSNMFVSGSCDATVRLWDIRIASRAVRTYHGHEGDINSVKFFPDGQRFGTGSDDGTCRLFDVRTGHQLQVYSREPDRNDNELPTVTSIAFSISGRLLFAGYSNGDCYVWDTLLAEVVLNLGNLQNSHEGRISCLGLSSDGSALCTGSWDKNLKIWAFSGHRKIV
Regarding B1, the binding entry in experiment [1] is “no binding”; in experiment [2], “binds”; in experiment [3], “no binding”; in experiment [4], “no binding”.
